{"source": "PubChem BioAssay AID493014", "about": "(National Center for Advancing Translational Sciences (NCATS), 2011)", "note": "The campaign covered roughly 340,000 compounds. About 170 (0.05%) were called active. The shares of active, inactive and inconclusive entries below differ from those in the screen. Calls come from the whole dose curve; as a rule, active = well fitted inhibition curve with a large enough effect in the signal ratio, with a control signal flat (not every such curve was filed as active); inconclusive = small, poorly fitted or top-dose-only effect, or effect the other way, or a change in a side signal; inactive = flat fitted curve, though single readings scatter; the % refers to the signal ratio. A potency beside an inconclusive call is a rough fit, not a confirmed value. Potency is the fitted concentration of half-maximal effect.", "data": [{"test": "qHTS Assay to Find Inhibitors of Chronic Active B-Cell Receptor Signaling;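 for activity change, negative = inhibition: plate controls were basal doxycycline-induced cells for no effect and cells given 10 µM MG132 for full effect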", "settings": "ABC-DLBCL IkBa-CBG/CBR reporter, luminescence ratio (green luciferase fused to IkBa over red control in TMD8 lymphoma cells), 4 h; activity change, negative = inhibition: at 46.1 µM (top of the series)", "method_in_brief": "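TMD8 human ABC-DLBCL cells with doxycycline-inducible IκBα–green luciferase fusion and unfused red luciferase, in 0.5% FBS medium; compounds up to 46 uM, 4 h at 37C. Green/red luminescence ratio, filter-overlap corrected, fitted to concentration-response curves.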", "values": [{"smiles": "Cc1cc(C(=O)Nc2ccccc2)oc(=O)c1", "Potency": "inconclusive: 22.4 µM [falling, single point]"}, {"smiles": "CN(C)CCN1CC(O)=C(c2nc3ccccc3s2)C1=N", "activity change, negative = inhibition": "inconclusive: -3.11%"}, {"smiles": "O=C(CSc1nc2ccccc2c(=O)n1-c1ccccc1)NCC1CCCO1", "note": "(stereo not drawn)", "activity change, negative = inhibition": "inconclusive: 0.772%"}, {"smiles": "CC(C)C1NC(C(=O)O)Cc2c1[nH]c1ccccc21", "note": "(stereo not drawn)", "activity change, negative = inhibition": "inconclusive: -22.6%"}, {"smiles": "COc1cc(OC)cc(-c2c(C#Cc3ccsc3)c3cc(-c4ccc(OC)c(F)c4)ccc3n2C)c1", "activity change, negative = inhibition": "inactive: 0.681%"}, {"smiles": "O=S(=O)(c1ccccc1)N1CCSC1c1ccco1", "note": "(stereo not drawn)", "activity change, negative = inhibition": "inconclusive: 3.49%"}, {"smiles": "O=C(NC(=S)NC(CO)c1ccccc1)c1ccc(F)cc1", "note": "(stereo not drawn)", "activity change, negative = inhibition": "inactive: 7.15%"}, {"smiles": "CC1(C)CC(=O)C2=C(C1)N(c1ccc(F)cc1)C(=O)NC2(C(F)(F)F)C(F)(F)F", "activity change, negative = inhibition": "inactive: 1.66%"}, {"smiles": "CC(C)OCCCn1c(=NC(=O)c2cccs2)c(C#N)cc2c(=O)n3ccccc3nc21", "activity change, negative = inhibition": "inconclusive: 14.5%"}, {"smiles": "CCOc1ccc(Br)cc1C(=S)N1CCCC1", "activity change, negative = inhibition": "inactive: 1.85%"}, {"smiles": "O=C(c1cccc(C(=O)N2CCN(c3ccccc3F)CC2)c1)N1CCN(c2ccccc2F)CC1", "activity change, negative = inhibition": "inconclusive: 8.69%"}, {"smiles": "O=C(CCC1N=C2c3ccccc3N=C(SCc3ccc(F)cc3)N2C1=O)NCCc1ccccc1", "note": "(stereo not drawn)", "activity change, negative = inhibition": "inconclusive: -3.59%"}, {"smiles": "COc1ccc(-c2noc(N3CCC(C(=O)Nc4cccc(OC)c4)CC3)n2)cc1", "Potency": "inconclusive: 7.94 µM [falling, partial curve, poor fit]"}, {"smiles": "Cc1ccc(C(=O)N/N=c2\\sc3ccccc3n2C)cc1", "activity change, negative = inhibition": "inconclusive: -10.4%"}, {"smiles": "O=c1oc(-c2ccccc2F)nc2c1cnn2-c1ccccc1", "activity change, negative = inhibition": "inactive: -10.8%"}, {"smiles": "CCOC(=O)C1(Cc2cccc(Cl)c2)CCCN(C(=O)CCOC)C1", "note": "(stereo not drawn)", "activity change, negative = inhibition": "inconclusive: 3.4%"}, {"smiles": "CC12Cc3ccc4ccccc4c3C=C1C[N+](C)(C)C2", "note": "(stereo not drawn)", "activity change, negative = inhibition": "inconclusive: -0.107%"}, {"smiles": "Cc1cc(C)nc(NC(=O)CCC2CCCC2)c1", "Potency": "inconclusive: 23.1 µM [falling, single point]"}, {"smiles": "Cc1ccc(COc2ccccc2-c2cc(C(=O)N/N=C/c3cccnc3)[nH]n2)cc1", "Potency": "inconclusive: 1.41 µM [falling, partial curve, poor fit]"}, {"smiles": "O=C1CC(Sc2nnnn2C2CCCCC2)C(=O)N1c1ccccc1", "note": "(stereo not drawn)", "activity change, negative = inhibition": "inactive: -2.05%"}, {"smiles": "Nc1cccc2c1C(=O)N(C(=O)/C=C/c1cccc(Br)c1)C2=O", "activity change, negative = inhibition": "inconclusive: -29%"}, {"smiles": "COc1ccc(/C=C(\\NC(=O)c2ccc(C)cc2)C(=O)NCCCn2ccnc2)cc1", "activity change, negative = inhibition": "inactive: 4.56%"}, {"smiles": "CC(C)NC(=S)N/N=C/c1sc(N2CCCCC2)nc1-c1cccs1", "activity change, negative = inhibition": "inconclusive: 2.19%"}, {"smiles": "Cc1ccc2ncnc(NCCCCCC(=O)O)c2c1", "Potency": "inconclusive: 12.6 µM [falling, partial curve, poor fit]"}, {"smiles": "CN(Cc1ccccc1)C(=O)c1c[nH]c2ccc(S(=O)(=O)N3CCOCC3)cc2c1=O", "activity change, negative = inhibition": "inconclusive: 3.44%"}, {"smiles": "CCOc1cc(C(=O)OC(C(=O)NC(=O)NC)c2ccccc2)ccc1OCC(=O)N1CCOCC1", "note": "(stereo not drawn)", "activity change, negative = inhibition": "inconclusive: -0.383%"}, {"smiles": "COc1ccc(OC)c(C2=NOC(C(=O)N3CCN(c4ccccc4)CC3)C2)c1", "note": "(stereo not drawn)", "activity change, negative = inhibition": "inconclusive: -20.8%"}, {"smiles": "CCOC(=O)c1c(NC(=O)CN2C(=O)NC(C)(c3ccc(OC(F)F)cc3)C2=O)sc(C)c1C", "note": "(stereo not drawn)", "activity change, negative = inhibition": "inconclusive: 2.9%"}, {"smiles": "COc1ccccc1N1CCN(C(=O)/C=C/c2cccs2)CC1", "activity change, negative = inhibition": "inactive: 2.85%"}, {"smiles": "CSc1ccccc1NC(=O)c1ccc2c(c1)CCN2S(C)(=O)=O", "Potency": "inconclusive: 35.5 µM [falling, single point]"}, {"smiles": "CCOC(=O)N=S(=O)(Oc1ccc([N+](=O)[O-])cc1)c1ccc(Cl)cc1", "note": "(stereo not drawn)", "activity change, negative = inhibition": "inconclusive: 8.68%"}, {"smiles": "COc1ccc2oc(=O)c(C(=O)N3CCN(c4ccccc4)CC3)cc2c1", "activity change, negative = inhibition": "inconclusive: 5.05%"}, {"smiles": "CCN1C(=O)C2CCCCN2c2ccc(C(=O)NCCOC)cc21", "note": "(stereo not drawn)", "activity change, negative = inhibition": "inconclusive: -0.395%"}, {"smiles": "CCCCNC(=O)CSc1nc2n[nH]c(C)c2c(=N)n1-c1cccc(Cl)c1C", "activity change, negative = inhibition": "inconclusive: -22.4%"}, {"smiles": "CCCc1c(O)c2ccccc2n(-c2ccccc2)c1=O", "activity change, negative = inhibition": "inconclusive: 12.3%"}, {"smiles": "N#Cc1c(N)nc(SCC(=O)NCc2ccc3c(c2)OCO3)c(C#N)c1-c1cccs1", "activity change, negative = inhibition": "inconclusive: -0.198%"}, {"smiles": "CCOC(=O)c1c(NC(=O)COC(=O)Cn2c(C)nc3ccccc32)sc2c1CCCC2", "activity change, negative = inhibition": "inactive: -3.03%"}, {"smiles": "Cn1c(=O)[nH]c(=O)c2c1nc(Sc1ccccc1)n2CCc1ccccc1", "activity change, negative = inhibition": "inconclusive: -25.9%"}, {"smiles": "NC(=O)C1CCN(c2nc(-c3ccccc3F)cs2)CC1", "activity change, negative = inhibition": "inconclusive: 5.65%"}, {"smiles": "O=C(/C=C/c1cccnc1)/C=C/c1cccnc1", "Potency": "inconclusive: 11.2 µM [rising, single point]"}, {"smiles": "COc1ccc(NC(=S)/N=C(\\N)Nc2nc(C)c3ccc(C)cc3n2)cc1", "activity change, negative = inhibition": "inconclusive: -22.8%"}, {"smiles": "C/C(Nc1ccc(C)cc1)=C(/C#N)C(N)=O", "activity change, negative = inhibition": "inconclusive: 6.7%"}, {"smiles": "COc1cccc(-c2nc(C(=O)NCC3CCCO3)cc3c2[nH]c2ccccc23)c1", "note": "(stereo not drawn)", "Potency": "inconclusive: 0.501 µM [rising, full curve]"}, {"smiles": "O=C(CCN1C(=O)/C(=C/c2ccc(F)cc2)SC1=S)N[C@@H](CO)Cc1ccccc1", "activity change, negative = inhibition": "inconclusive: -4.34%"}, {"smiles": "O=C1c2ccccc2C(=O)N1CCc1nc(-c2ccc(Cl)cc2)no1", "activity change, negative = inhibition": "inconclusive: 24.7%"}, {"smiles": "Cn1c(CNC(=O)c2ccccc2F)nnc1SCC(=O)NCc1ccccc1", "activity change, negative = inhibition": "inconclusive: 8.01%"}, {"smiles": "CN(C)CCCN(C(=O)c1ccc(C(=O)c2ccccc2)cc1)c1nc2cc3c(cc2s1)OCCO3", "activity change, negative = inhibition": "inactive: -13.9%"}, {"smiles": "Cc1ccc(C(=O)c2c3ccc(C(F)(F)F)cc3[n+]([O-])n2CCCC(N)=O)cc1", "activity change, negative = inhibition": "inactive: -0.671%"}, {"smiles": "CSc1ccc(-c2nc(CN(C)C3CCOC3)c(C)o2)cc1", "note": "(stereo not drawn)", "activity change, negative = inhibition": "inconclusive: 21.2%"}, {"smiles": "COc1cc(OC)cc(N2C(=O)N(Cc3ccc(C(C)(C)C)cc3)c3ccccc3S2(=O)=O)c1", "activity change, negative = inhibition": "inconclusive: 27.7%"}, {"smiles": "Cc1ccc(CN(C(=O)Cn2nnc3ccccc32)C(C(=O)NCc2ccco2)c2cccs2)cc1", "note": "(stereo not drawn)", "activity change, negative = inhibition": "inactive: 4.79%"}, {"smiles": "O=C(CSc1n[nH]c(-c2ccncc2)n1)Nc1ccc(Cl)c(C(=O)O)c1", "activity change, negative = inhibition": "inactive: -6.9%"}, {"smiles": "COC(=O)c1ccccc1OCCOCCOc1cccc2cccnc12", "activity change, negative = inhibition": "inconclusive: -18%"}, {"smiles": "C#CC(CO)N(CCN(Cc1ccccc1)C(C#C)CO)Cc1ccccc1", "note": "(stereo not drawn)", "activity change, negative = inhibition": "inactive: 10.4%"}, {"smiles": "O=C(NCCC1=CCCCC1)c1cc(-c2ccncc2)nc2ccccc12", "activity change, negative = inhibition": "inconclusive: 2.95%"}, {"smiles": "O=C(NNC(=S)NC(=O)c1cccs1)c1cccnc1", "Potency": "inconclusive: 15.8 µM [falling, partial curve]"}, {"smiles": "COCc1ccc(C(=O)N2CCCC(CCC(=O)NCc3ccccc3F)C2)o1", "note": "(stereo not drawn)", "activity change, negative = inhibition": "inconclusive: -1.67%"}, {"smiles": "COCCn1c(-c2ccc(OC)cc2)nc2ccccc21", "activity change, negative = inhibition": "inconclusive: 0.461%"}, {"smiles": "O=C(CSC1CS(=O)(=O)c2cc([N+](=O)[O-])ccc21)NNC(=O)c1ccc(Cl)cc1", "note": "(stereo not drawn)", "activity change, negative = inhibition": "inconclusive: -23.2%"}, {"smiles": "COc1ccc(NC(=O)CSc2nnc(CNC(=O)c3ccco3)n2-c2ccccc2OC)cc1", "activity change, negative = inhibition": "inconclusive: -26.7%"}, {"smiles": "O=C1C(=O)N(c2ccccc2)C(c2ccccc2[N+](=O)[O-])/C1=C(\\O)c1ccccc1", "note": "(stereo not drawn)", "Potency": "inconclusive: 20 µM [falling, single point]"}, {"smiles": "CSc1nnc2c3ccccc3n(CCc3ccccc3)c2n1", "activity change, negative = inhibition": "inconclusive: 1.53%"}, {"smiles": "O=C(CCSCc1cccc(Cl)c1)N1CCN(c2ccc(Cl)cc2)CC1", "activity change, negative = inhibition": "inactive: 0.0925%"}, {"smiles": "Cc1ccc(NC(=O)C2CCN(S(=O)(=O)c3ccc4c(c3)NC(=O)C(C)S4)CC2)c(Cl)c1", "note": "(stereo not drawn)", "activity change, negative = inhibition": "inactive: 7.31%"}, {"smiles": "CC(C)(C)NS(=O)(=O)c1ccc(Oc2ncc(C(F)(F)F)cc2Cl)cc1", "Potency": "inconclusive: 5.8 µM [rising, full curve, poor fit]"}, {"smiles": "CCCCOc1ccc(C(=O)N/N=C/c2cn[nH]c2-c2ccc(OC)c(OC)c2)cc1", "activity change, negative = inhibition": "inconclusive: -16.8%"}, {"smiles": "CCC(=O)NC(c1cc(Cl)c2cccnc2c1O)C(C)C", "note": "(stereo not drawn)", "activity change, negative = inhibition": "inactive"}, {"smiles": "Cc1cc(C)cc(NC(=S)N2CCC(c3nc4ccccc4s3)CC2)c1", "activity change, negative = inhibition": "inactive: 4.76%"}, {"smiles": "Cc1cc(Nc2ccc(Cl)cc2)nc(-c2ccccc2O)n1", "activity change, negative = inhibition": "inconclusive: 11.6%"}, {"smiles": "CCC(Oc1ccc(Br)cc1)C(=O)N1CCN(c2ncccn2)CC1", "note": "(stereo not drawn)", "activity change, negative = inhibition": "inconclusive: -4.27%"}, {"smiles": "CCOC(=O)c1cc(NC(=O)CCC(=O)O)ccc1N1CCCCC1", "activity change, negative = inhibition": "inconclusive: 21.9%"}, {"smiles": "O=C(c1cccc(C(F)(F)F)c1)C1CCCN(Cc2cccn2-c2ncccn2)C1", "note": "(stereo not drawn)", "activity change, negative = inhibition": "inactive: -26.8%"}, {"smiles": "COc1ccc(C(=O)Cc2cnn(-c3ccccc3)c2)c(O)c1", "Potency": "inconclusive: 0.326 µM [rising, full curve, poor fit]"}, {"smiles": "Cc1ccccc1/C=C/c1cc[n+](C)cc1", "activity change, negative = inhibition": "inactive: 0.865%"}, {"smiles": "Cc1cc(C(=O)OCC(=O)Nc2ccccc2F)c(C)o1", "Potency": "inconclusive: 22.4 µM [falling, partial curve]"}, {"smiles": "COc1ccc(CN(C)C(=O)c2ccc(OCC(=O)Nc3cccc(C(F)(F)F)c3)c(OC)c2)c(OC)c1", "Potency": "inconclusive: 29.1 µM [falling, single point]"}, {"smiles": "O=C(O)/C=C/c1cn(-c2ccccc2)nc1-c1cc2ccccc2o1", "activity change, negative = inhibition": "inconclusive: -7.05%"}, {"smiles": "CCn1c2ccccc2c2cc(CC(N)=O)ccc21", "activity change, negative = inhibition": "inconclusive: -13.9%"}, {"smiles": "CC(C)(O)c1[nH]c2cc(C(F)(F)F)ccc2c1C(C)(C)O", "activity change, negative = inhibition": "inconclusive: 11.4%"}, {"smiles": "CCCCCc1ccc(OCCOCCn2c[n+](C)c3ccccc32)c(CCCCC)c1", "activity change, negative = inhibition": "inconclusive: 5.27%"}, {"smiles": "CSCCC(NC(=O)COc1ccccc1)C(=O)N1CCN(c2ccccc2)CC1", "note": "(stereo not drawn)", "activity change, negative = inhibition": "inconclusive: -0.243%"}, {"smiles": "O=C(CC(=O)c1cc(Cl)ccc1O)c1ccccc1", "activity change, negative = inhibition": "inconclusive: 12.8%"}, {"smiles": "Cn1ccc(NC(=O)c2ccc(Cl)cc2)n1", "activity change, negative = inhibition": "inactive: -0.579%"}]}]}
